# Test results reported in PubChem BioAssay (NCATS).
# This list was built around the results that the source calls inconclusive (neither active nor inactive); the mix of calls is not that of the screen. For some of these results: A potency beside an inconclusive call is a rough fit, not a confirmed value. Activity calls are given as the source filed them. Calls follow the shape of the dose curve; as a rule, active = well fitted curve in the direction sought with a large enough effect; inconclusive = small, poorly fitted or top-dose-only effect, or another doubt; inactive = no such curve, though single readings can be large; an effect the other way counts as inactive or inconclusive.
# Tests used:
# [1] = Quantitative High-Throughput drug screen in 47 multiple myeloma cell lines against the NCATS MIPE library collection: JIM1_ECACC cell viability assay (AID 1918964); conditions: JIM1 myeloma viability, CellTiter-Glo ATP luminescence, 48 h; viability (% of DMSO): at 45.8 µM (top of the series)
# How it was run: (§1)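 Viability readout: CellTiter-Glo luminescence following 5 min room-temperature incubation with reagent. Prior exposure: 48 h, 37C, humidified 5% CO2, 500 cells per well.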
# [2] = Quantitative High-Throughput drug screen in 47 multiple myeloma cell lines against the NCATS MIPE library collection: INA6_PLB cell viability assay (AID 1918965; also: nearly all actives have a fitted effect of over 55% in size); conditions: INA6 myeloma viability, CellTiter-Glo ATP luminescence, 48 h; viability (% of control): at 45.8 µM (top of the series)
# How it was run: (§2)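 Steps: seed 500 cells per well; pin-transfer MIPE 4.0 library; incubate 48 h at 37C, 5% CO2, humidified; add CellTiter-Glo, 5 min room temperature; read luminescence.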
# [3] = Quantitative High-Throughput drug screen in 47 multiple myeloma cell lines against the NCATS MIPE library collection: H1112_PLB cell viability assay (AID 1918967; also: nearly all actives have a fitted effect of over 30% in size); conditions: H1112 myeloma cells viability, ATP luminescence, 48 h; viability: at 45.8 µM (top of the series)
# How it was run: as §1
# [4] = Quantitative High-Throughput drug screen in 47 multiple myeloma cell lines against the NCATS MIPE library collection: KMS27_JCRB cell viability assay (AID 1918970); conditions: KMS27 myeloma cells, CellTiter-Glo ATP viability, 48 h; viability (% of DMSO): at 45.8 µM (top of the series); also: nearly all actives have a fitted effect of over 30% in size
# How it was run: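 Luminescent ATP read-out (CellTiter-Glo, 5 min at room temperature) after 48 h compound exposure of 500 KMS27_JCRB cells per well; DMSO wells define full viability and media-only wells zero.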
# [5] = Quantitative High-Throughput drug screen in 47 multiple myeloma cell lines against the NCATS MIPE library collection: KMS12BM_JCRB cell viability assay (AID 1918971); also: nearly all actives have a fitted effect of over 35% in size
# How it was run: (§3)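 qHTS of the MIPE 4.0 collection: 500 myeloma cells/well, 48 h drug exposure at 37C in 5% CO2, then CellTiter-Glo for 5 min at room temperature before luminescence reading.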
# [6] = Quantitative High-Throughput drug screen in 47 multiple myeloma cell lines against the NCATS MIPE library collection: KMS20_JCRB cell viability assay (AID 1918973); conditions: CellTiter-Glo ATP, 48 h; viability (% of DMSO): at 45.8 µM (top of the series); also: nearly all actives have a fitted effect of over 45% in size
# How it was run: as §1
# [7] = Quantitative High-Throughput drug screen in 47 multiple myeloma cell lines against the NCATS MIPE library collection: MMM1_PLB cell viability assay (AID 1918976); also: nearly all actives have a fitted effect of over 35% in size
# How it was run: (§4)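 Inhibition of viability over 48 h was scored by ATP content (CellTiter-Glo) in 500-cell wells. Zero and full viability were defined by media-only and DMSO-only wells.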
# [8] = Quantitative High-Throughput drug screen in 47 multiple myeloma cell lines against the NCATS MIPE library collection: OCIMY1_PLB cell viability assay (AID 1918979); also: nearly all actives have a fitted effect of over 35% in size
# How it was run: as §4
# [9] = Quantitative High-Throughput drug screen in 47 multiple myeloma cell lines against the NCATS MIPE library collection: JJN3_DSMZ cell viability assay (AID 1918966; also: nearly all actives have a fitted effect of over 50% in size); conditions: JJN3 myeloma cells viability, CellTiter-Glo ATP, 48 h; series mostly up to 45.8 µM
# How it was run: as §1
# [10] = Quantitative High-Throughput drug screen in 47 multiple myeloma cell lines against the NCATS MIPE library collection: KMS26_JCRB cell viability assay (AID 1918975); conditions: KMS26 myeloma cells viability, CellTiter-Glo ATP, 48 h; viability (% of DMSO): at 45.8 µM (top of the series); also: nearly all actives have a fitted effect of over 45% in size
# How it was run: as §3
# [11] = Quantitative High-Throughput drug screen in 47 multiple myeloma cell lines against the NCATS MIPE library collection: MOLP8_DSMZ cell viability assay (AID 1918977); conditions: MOLP8 myeloma viability, CellTiter-Glo ATP luminescence, 48 h; viability (% of control): at 45.8 µM (top of the series); also: nearly all actives have a fitted effect of over 45% in size
# How it was run: as §4
# [12] = Quantitative High-Throughput drug screen in 47 multiple myeloma cell lines against the NCATS MIPE library collection: MM1S_ATCC cell viability assay (AID 1918980); also: nearly all actives have a fitted effect of over 45% in size
# How it was run: as §4
# [13] = Quantitative High-Throughput drug screen in 47 multiple myeloma cell lines against the NCATS MIPE library collection: LP1_DSMZ cell viability assay (AID 1918982); also: nearly all actives have a fitted effect of over 35% in size
# How it was run: as §4
# [14] = Quantitative High-Throughput drug screen in 47 multiple myeloma cell lines against the NCATS MIPE library collection: KMS21BM_JCRB cell viability assay (AID 1918974); conditions: ATP luminescence, 48 h; viability: at 45.8 µM (top of the series) unless noted
# How it was run: as §1
# [15] = Quantitative High-Throughput drug screen in 47 multiple myeloma cell lines against the NCATS MIPE library collection: NCIH929_DSMZ cell viability assay (AID 1918978); also: nearly all actives have a fitted effect of over 35% in size
# How it was run: as §4
# [16] = Quantitative High-Throughput drug screen in 47 multiple myeloma cell lines against the NCATS MIPE library collection: KMS12PE_JCRB cell viability assay (AID 1918972); conditions: KMS12PE myeloma viability, CellTiter-Glo ATP, 48 h; viability: at 45.8 µM (top of the series); also: nearly all actives have a fitted effect of over 30% in size
# How it was run: as §2
# [17] = Quantitative High-Throughput drug screen in 47 multiple myeloma cell lines against the NCATS MIPE library collection: KMS28PE_JCRB cell viability assay (AID 1918983); also: nearly all actives have a fitted effect of over 35% in size
# How it was run: as §4
# [18] = Quantitative High-Throughput drug screen in 47 multiple myeloma cell lines against the NCATS MIPE library collection: MM1R_ATCC cell viability assay (AID 1918981); also: nearly all actives have a fitted effect of over 35% in size
# How it was run: as §4
# Potency is read from the fitted curve at half-maximal effect.
SMILES,Potency [1],Potency [2],Potency [3],Potency [4],Potency [5],Potency [6],Potency [7],Potency [8],Potency [9],Potency [10],Potency [11],Potency [12],Potency [13],Potency [14],Potency [15],Potency [16],Potency [17],Potency [18]
COCCCOc1cc(C[C@@H](C[C@H](N)[C@@H](O)C[C@H](C(=O)NCC(C)(C)C(N)=O)C(C)C)C(C)C)ccc1OC,"inconclusive: 3.72 µM [cytotoxic, full curve, poor fit]","inconclusive: 16.6 µM [cytotoxic, partial curve, poor fit]","inconclusive: 0.235 µM [rising, full curve, poor fit]","inconclusive: 0.372 µM [rising, full curve, poor fit]","inconclusive: 0.0053 µM [rising, full curve, poor fit]","inconclusive: 7.43 µM [cytotoxic, full curve, poor fit]","inconclusive: 0.0743 µM [rising, full curve, poor fit]",inconclusive: 0.001 µM [cytotoxic],,,,,,,,,,
NCC1CCC(C(=O)O)CC1 (stereo unspecified),"inconclusive: 0.833 µM [rising, full curve, poor fit]",inactive,,,inactive,"inconclusive: 0.0026 µM [cytotoxic, full curve, poor fit]",active: 0.0148 µM,inactive,"inconclusive: 0.0118 µM [cytotoxic, full curve, poor fit]",inactive,"inconclusive: 0.187 µM [cytotoxic, full curve, poor fit]","inconclusive: 20.9 µM [cytotoxic, partial curve, poor fit]","inconclusive: 3.32 µM [cytotoxic, single point]",,,,,
CNC(=O)c1cc(Oc2ccc(NC(=O)Nc3ccc(Cl)c(C(F)(F)F)c3)c(F)c2)ccn1,active: 13.2 µM,active: 5.9 µM,"inconclusive: 3.32 µM [cytotoxic, full curve]",,,,,,,,,,,active: 2.96 µM,"inconclusive: 3.32 µM [cytotoxic, partial curve]",,,
CCOC(=O)C1=C[C@]2(CC)CCCN3CCc4c(n1c1ccccc41)[C@@H]32,active: 11.8 µM,active: 8.33 µM,active: 11.8 µM,active: 23.5 µM,active: 14.8 µM,active: 5.9 µM,active: 14.8 µM,"inconclusive: 29.6 µM [cytotoxic, single point]",,active: 26.4 µM,,,,,,,,
CC(=O)OCC(CCn1cnc2cnc(N)nc21)COC(C)=O,inactive,inactive,inactive,"inconclusive: 0.003 µM [cytotoxic, full curve, poor fit]",,inactive,"inconclusive: 0.0083 µM [rising, full curve, poor fit]",inactive,,,inactive,"inconclusive: 0.526 µM [rising, full curve, poor fit]",,"inconclusive: 0.833 µM [cytotoxic, full curve, poor fit]",,,,
O=C(OC1C[C@H]2CC[C@@H](C1)[N+]21CCCC1)C(O)(c1ccccc1)c1ccccc1 (stereo partly specified),inactive,inconclusive: 0.001 µM,,inactive,inactive,"inconclusive: 0.0105 µM [rising, full curve, poor fit]","inconclusive: 0.372 µM [rising, full curve, poor fit]","inconclusive: 7.43 µM [rising, partial curve]","inconclusive: 0.0148 µM [rising, full curve]",,inactive,inactive,inactive,inactive,,,,
CC(=O)O[C@]1(C(C)=O)CC[C@@H]2[C@@H]3C[C@H](C)C4=CC(=O)CC[C@]4(C)[C@H]3CC[C@@]21C,inactive,active: 18.7 µM,"inconclusive: 33.2 µM [cytotoxic, single point]",,,"inconclusive: 37.2 µM [cytotoxic, partial curve, poor fit]",,"inconclusive: 20.9 µM [cytotoxic, partial curve, poor fit]",,active: 23.5 µM,,,"inconclusive: 23.5 µM [cytotoxic, single point]",,"inconclusive: 29.6 µM [cytotoxic, single point]",inactive,"inconclusive: 33.2 µM [cytotoxic, single point]",
Cc1cc(=O)oc2cc(O)ccc12,"inconclusive: 0.935 µM [cytotoxic, full curve, poor fit]",inactive,,inactive,inactive,,,inactive,"inconclusive: 0.0743 µM [cytotoxic, full curve, poor fit]",,inactive,"inconclusive: 20.9 µM [cytotoxic, single point]",inactive,"inconclusive: 26.4 µM [rising, partial curve, poor fit]",,,,
O=C(O)c1cc(=O)[nH]c(=O)[nH]1,"inconclusive: 20.9 µM [cytotoxic, single point]",inactive,,,"inconclusive: 16.6 µM [cytotoxic, partial curve, poor fit]","inconclusive: 37.2 µM [cytotoxic, single point]","inconclusive: 20.9 µM [cytotoxic, partial curve, poor fit]","inconclusive: 74.3 µM [rising, single point]","inconclusive: 20.9 µM [cytotoxic, single point]",,,inactive,inactive,"inconclusive: 33.2 µM [rising, partial curve]",,,,
C[C@@H](CN1CC(=O)NC(=O)C1)N1CC(=O)NC(=O)C1,inactive,active: 10.5 µM,,,"inconclusive: 23.5 µM [cytotoxic, single point]","inconclusive: 23.5 µM [cytotoxic, partial curve, poor fit]","inconclusive: 0.0833 µM [rising, full curve, poor fit]","inconclusive: 0.372 µM [rising, full curve, poor fit]",inactive,inactive,"inconclusive: 20.9 µM [cytotoxic, single point]",,,"inconclusive: 6.62 µM [cytotoxic, partial curve, poor fit]",,,"inconclusive: 0.372 µM [rising, full curve]","inconclusive: 4.69 µM [cytotoxic, full curve]"
Cn1cnc2c1c(=O)[nH]c(=O)n2C,active: 4.69 µM,active: 7.43 µM,,,,,,active: 23.5 µM,active: 16.6 µM,,,,,active: 9.35 µM,,active: 5.9 µM,,
O=c1cc(O)c(Cl)c[nH]1,active: 6.62 µM,"inconclusive: 6.62 µM [cytotoxic, full curve, poor fit]",,,"inconclusive: 11.8 µM [cytotoxic, full curve, poor fit]","inconclusive: 0.0017 µM [cytotoxic, full curve, poor fit]","inconclusive: 7.43 µM [cytotoxic, partial curve, poor fit]",,"inconclusive: 11.8 µM [cytotoxic, full curve, poor fit]","inconclusive: 18.7 µM [cytotoxic, single point]",inactive,active: 3.72 µM,,active: 0.743 µM,,,"inconclusive: 11.8 µM [cytotoxic, partial curve, poor fit]","inconclusive: 5.26 µM [rising, partial curve, poor fit]"
Cn1c(N2CCCCS2(=O)=O)nc(C(=O)NCc2ccc(F)cc2)c(O)c1=O,"inconclusive: 13.2 µM [cytotoxic, partial curve]",inactive,,"inconclusive: 20.9 µM [cytotoxic, partial curve, poor fit]","inconclusive: 33.2 µM [cytotoxic, single point]",inactive,,inactive,"inconclusive: 0.0012 µM [rising, full curve, poor fit]","inconclusive: 23.5 µM [cytotoxic, partial curve, poor fit]",inactive,inactive,inactive,,,,,
CC(C)=CCCC(C)=CCCC(C)=CCCC(C)=CCCC(C)=CCCC(C)=CCCC(C)=CCCC(C)=CCCC(C)=CCO,inactive,inactive,,,inactive,"inconclusive: 10.5 µM [cytotoxic, partial curve, poor fit]",inactive,,"inconclusive: 10.5 µM [cytotoxic, full curve, poor fit]",,active: 9.35 µM,inactive,inactive,"inconclusive: 0.003 µM [cytotoxic, full curve, poor fit]",,,,inactive
Cc1ccc(C2=Nc3ccc(Cl)cc3OC2)cc1,"inconclusive: 0.0833 µM [cytotoxic, full curve, poor fit]","inconclusive: 2.09 µM [cytotoxic, partial curve, poor fit]",inactive,"inconclusive: 0.332 µM [cytotoxic, full curve, poor fit]","inconclusive: 5.26 µM [cytotoxic, partial curve, poor fit]","inconclusive: 11.8 µM [cytotoxic, partial curve, poor fit]",active: 18.7 µM,,,inactive,"inconclusive: 14.8 µM [cytotoxic, partial curve, poor fit]","inconclusive: 10.5 µM [cytotoxic, full curve, poor fit]","inconclusive: 18.7 µM [cytotoxic, partial curve]","inconclusive: 33.2 µM [rising, partial curve, poor fit]",inactive,active: 4.18 µM,,

# Rewritten with tabs: part of the list above
SMILES	Potency [1]	Potency [2]	Potency [3]	Potency [4]	Potency [5]	Potency [6]	Potency [7]	Potency [8]	Potency [9]	Potency [10]	Potency [11]	Potency [12]	Potency [13]	Potency [14]	Potency [15]	Potency [16]	Potency [17]	Potency [18]
CCOC(=O)C1=C[C@]2(CC)CCCN3CCc4c(n1c1ccccc41)[C@@H]32	active: 11.8 µM	active: 8.33 µM	active: 11.8 µM	active: 23.5 µM	active: 14.8 µM	active: 5.9 µM	active: 14.8 µM	inconclusive: 29.6 µM [cytotoxic, single point]		active: 26.4 µM								
CC(=O)OCC(CCn1cnc2cnc(N)nc21)COC(C)=O	inactive	inactive	inactive	inconclusive: 0.003 µM [cytotoxic, full curve, poor fit]		inactive	inconclusive: 0.0083 µM [rising, full curve, poor fit]	inactive			inactive	inconclusive: 0.526 µM [rising, full curve, poor fit]		inconclusive: 0.833 µM [cytotoxic, full curve, poor fit]				
